# From article PMC4195615 (PLoS ONE, 2014)
# Assay: peptide synthesis
# Settings: whole synthesis
substance,measurement,value
NH2-KWKVFKKIEK-KWKVFKKIEK-AGP-KWKVFKKIEK-COOH,final purity (method not given),about 96%
